The list shows a part of the results.
Columns and labels:
Experiment in all cases: log2 fold change, soluble protein after heating vs DMSO (PISA); higher = thermal stabilisation; K562 lysate, 10 uM; active = over 0.2 and 3.5 SD of the protein, either way, in both replicates (recomputed)
nilotinib = compound: Cc1cn(-c2cc(NC(=O)c3ccc(C)c(Nc4nccc(-c5cccnc5)n4)c3)cc(C(F)(F)F)c2)cn1 [nilotinib]
Outline: (§1)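 To prepare the extract, K562 pellets were dounce-homogenised in PBS pH 7.4 with 1 mM MgCl2, giving crude material at 1 mg/mL protein. This was treated with 10 μM compound for 30 min, then heated in aliquots for 3 min over 48°C-58°C before pooling and addition of NP-40 to 0.5% at 4°C. Centrifugation at 21,000xg for 90 min left soluble protein in the supernatant, which TMTpro 16plex LC-MS/MS quantified with equalised channel sums. Results are log-two fold changes in thermal stability compared with solvent controls, from duplicates.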

Chains of the proteins cited; added tags and fusions are not shown. Lines headed by an entry give the natural chain unless they say otherwise; changes in a name come on top.
UniProt Q6GMV3: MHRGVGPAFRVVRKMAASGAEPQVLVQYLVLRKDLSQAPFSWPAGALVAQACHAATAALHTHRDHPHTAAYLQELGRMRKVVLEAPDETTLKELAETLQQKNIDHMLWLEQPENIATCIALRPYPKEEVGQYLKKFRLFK
UniProt O00233: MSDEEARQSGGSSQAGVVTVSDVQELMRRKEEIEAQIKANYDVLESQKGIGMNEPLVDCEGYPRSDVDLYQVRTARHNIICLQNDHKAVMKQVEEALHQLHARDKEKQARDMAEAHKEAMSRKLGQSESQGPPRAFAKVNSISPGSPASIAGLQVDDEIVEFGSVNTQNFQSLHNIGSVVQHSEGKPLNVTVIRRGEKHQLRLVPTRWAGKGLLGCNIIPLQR
UniProt P25786: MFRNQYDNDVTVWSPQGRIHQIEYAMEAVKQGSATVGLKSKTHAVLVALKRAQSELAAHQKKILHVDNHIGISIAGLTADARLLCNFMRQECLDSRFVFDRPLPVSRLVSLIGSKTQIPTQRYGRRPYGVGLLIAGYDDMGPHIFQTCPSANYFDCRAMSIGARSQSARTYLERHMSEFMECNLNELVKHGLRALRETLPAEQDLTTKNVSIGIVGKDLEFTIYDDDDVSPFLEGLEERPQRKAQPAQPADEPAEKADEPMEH
UniProt Q9UNM6: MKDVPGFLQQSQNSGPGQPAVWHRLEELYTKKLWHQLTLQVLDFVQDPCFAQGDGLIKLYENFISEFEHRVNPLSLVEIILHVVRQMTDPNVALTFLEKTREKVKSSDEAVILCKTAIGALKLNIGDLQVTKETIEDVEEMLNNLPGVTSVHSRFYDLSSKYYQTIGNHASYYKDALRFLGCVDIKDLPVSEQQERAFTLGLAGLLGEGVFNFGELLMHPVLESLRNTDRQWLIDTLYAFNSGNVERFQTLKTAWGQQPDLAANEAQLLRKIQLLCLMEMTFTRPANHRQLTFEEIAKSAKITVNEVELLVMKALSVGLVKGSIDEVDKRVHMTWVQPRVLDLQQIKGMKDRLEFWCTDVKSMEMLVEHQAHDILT
UniProt P06454: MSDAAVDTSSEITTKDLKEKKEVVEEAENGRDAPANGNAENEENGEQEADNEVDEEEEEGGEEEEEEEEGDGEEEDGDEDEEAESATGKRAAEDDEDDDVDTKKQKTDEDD
UniProt Q15397: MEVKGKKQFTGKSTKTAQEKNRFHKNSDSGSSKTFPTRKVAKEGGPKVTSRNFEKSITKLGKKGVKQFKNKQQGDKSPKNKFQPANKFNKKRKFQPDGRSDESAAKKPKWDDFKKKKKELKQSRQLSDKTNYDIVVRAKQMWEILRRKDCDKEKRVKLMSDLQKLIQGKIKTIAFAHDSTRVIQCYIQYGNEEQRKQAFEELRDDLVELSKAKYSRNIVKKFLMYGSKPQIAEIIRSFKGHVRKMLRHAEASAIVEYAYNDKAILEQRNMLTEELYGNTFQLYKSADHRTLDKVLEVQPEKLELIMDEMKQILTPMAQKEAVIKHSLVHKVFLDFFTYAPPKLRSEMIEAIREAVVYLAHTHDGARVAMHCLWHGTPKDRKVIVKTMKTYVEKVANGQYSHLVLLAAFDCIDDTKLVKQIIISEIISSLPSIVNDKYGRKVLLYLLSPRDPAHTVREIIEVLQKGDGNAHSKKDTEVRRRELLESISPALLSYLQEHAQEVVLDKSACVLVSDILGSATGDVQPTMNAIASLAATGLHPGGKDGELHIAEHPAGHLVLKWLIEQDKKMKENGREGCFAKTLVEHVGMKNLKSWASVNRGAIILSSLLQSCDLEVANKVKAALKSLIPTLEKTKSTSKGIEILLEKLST
UniProt O75832: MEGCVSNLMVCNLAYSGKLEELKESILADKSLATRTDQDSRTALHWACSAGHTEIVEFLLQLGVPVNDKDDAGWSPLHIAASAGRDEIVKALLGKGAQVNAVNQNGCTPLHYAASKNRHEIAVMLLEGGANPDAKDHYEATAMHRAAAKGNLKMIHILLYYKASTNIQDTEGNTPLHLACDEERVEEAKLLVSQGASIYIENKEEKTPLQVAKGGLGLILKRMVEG
UniProt Q8NDX1: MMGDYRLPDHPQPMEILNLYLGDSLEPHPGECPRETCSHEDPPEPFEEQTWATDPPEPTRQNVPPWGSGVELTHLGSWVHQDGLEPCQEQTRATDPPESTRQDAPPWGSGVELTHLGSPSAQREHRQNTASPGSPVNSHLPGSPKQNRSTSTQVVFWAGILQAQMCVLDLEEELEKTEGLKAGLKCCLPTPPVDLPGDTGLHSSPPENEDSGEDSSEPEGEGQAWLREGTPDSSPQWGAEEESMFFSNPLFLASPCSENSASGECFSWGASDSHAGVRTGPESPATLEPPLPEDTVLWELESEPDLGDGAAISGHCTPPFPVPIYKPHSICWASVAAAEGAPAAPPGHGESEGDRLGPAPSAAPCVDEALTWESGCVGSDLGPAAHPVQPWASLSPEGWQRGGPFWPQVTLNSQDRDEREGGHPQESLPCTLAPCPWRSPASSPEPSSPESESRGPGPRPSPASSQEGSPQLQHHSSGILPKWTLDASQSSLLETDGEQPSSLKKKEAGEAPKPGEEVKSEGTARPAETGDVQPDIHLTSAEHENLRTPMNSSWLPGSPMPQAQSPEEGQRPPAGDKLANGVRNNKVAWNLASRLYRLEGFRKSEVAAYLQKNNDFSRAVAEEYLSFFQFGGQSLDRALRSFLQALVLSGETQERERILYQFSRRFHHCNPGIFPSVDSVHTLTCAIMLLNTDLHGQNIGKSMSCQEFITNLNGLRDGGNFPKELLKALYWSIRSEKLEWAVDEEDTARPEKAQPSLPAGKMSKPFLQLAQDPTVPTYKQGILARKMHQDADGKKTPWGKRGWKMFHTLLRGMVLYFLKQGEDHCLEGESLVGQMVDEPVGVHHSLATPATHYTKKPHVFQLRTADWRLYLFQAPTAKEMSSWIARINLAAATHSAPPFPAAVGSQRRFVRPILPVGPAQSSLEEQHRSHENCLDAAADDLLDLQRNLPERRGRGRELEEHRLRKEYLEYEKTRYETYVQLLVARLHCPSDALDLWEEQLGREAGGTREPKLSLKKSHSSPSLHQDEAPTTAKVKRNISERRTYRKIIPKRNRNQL
UniProt Q6PGN9: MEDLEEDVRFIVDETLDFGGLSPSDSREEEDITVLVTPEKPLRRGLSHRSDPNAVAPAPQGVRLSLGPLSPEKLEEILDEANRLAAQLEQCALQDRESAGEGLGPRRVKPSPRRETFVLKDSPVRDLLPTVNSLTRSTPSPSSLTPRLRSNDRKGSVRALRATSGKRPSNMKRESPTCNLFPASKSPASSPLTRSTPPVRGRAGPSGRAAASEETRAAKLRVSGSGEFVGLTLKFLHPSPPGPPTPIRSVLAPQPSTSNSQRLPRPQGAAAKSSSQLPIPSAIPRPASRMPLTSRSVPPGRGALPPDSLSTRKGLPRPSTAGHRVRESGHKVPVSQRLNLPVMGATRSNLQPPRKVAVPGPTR
UniProt Q15257: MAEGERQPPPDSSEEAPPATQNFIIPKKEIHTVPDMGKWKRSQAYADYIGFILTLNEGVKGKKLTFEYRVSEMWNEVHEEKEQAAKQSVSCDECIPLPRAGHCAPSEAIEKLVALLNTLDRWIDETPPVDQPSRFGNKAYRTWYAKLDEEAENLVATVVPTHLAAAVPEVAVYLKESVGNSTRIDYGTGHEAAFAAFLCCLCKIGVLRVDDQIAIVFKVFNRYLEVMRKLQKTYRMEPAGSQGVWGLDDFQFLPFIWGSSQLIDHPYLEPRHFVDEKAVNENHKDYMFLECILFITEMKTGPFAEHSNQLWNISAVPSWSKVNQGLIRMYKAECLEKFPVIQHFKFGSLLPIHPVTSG
UniProt Q9NRG1: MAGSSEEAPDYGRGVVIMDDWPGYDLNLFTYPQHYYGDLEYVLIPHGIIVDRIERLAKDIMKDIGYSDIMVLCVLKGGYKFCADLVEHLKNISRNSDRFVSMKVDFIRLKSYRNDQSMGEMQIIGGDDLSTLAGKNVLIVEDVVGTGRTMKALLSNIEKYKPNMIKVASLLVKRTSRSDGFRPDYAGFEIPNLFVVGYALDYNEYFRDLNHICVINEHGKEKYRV
UniProt P55036: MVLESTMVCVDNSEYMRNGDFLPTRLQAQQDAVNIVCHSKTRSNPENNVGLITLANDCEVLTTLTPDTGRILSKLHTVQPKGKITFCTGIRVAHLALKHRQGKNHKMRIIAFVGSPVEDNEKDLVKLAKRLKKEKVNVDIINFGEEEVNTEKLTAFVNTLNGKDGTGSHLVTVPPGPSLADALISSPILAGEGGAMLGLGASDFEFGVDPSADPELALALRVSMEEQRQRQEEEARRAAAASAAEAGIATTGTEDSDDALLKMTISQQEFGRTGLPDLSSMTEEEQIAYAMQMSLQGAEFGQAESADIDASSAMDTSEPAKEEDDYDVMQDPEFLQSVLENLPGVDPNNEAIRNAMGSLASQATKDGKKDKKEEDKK
UniProt Q13332: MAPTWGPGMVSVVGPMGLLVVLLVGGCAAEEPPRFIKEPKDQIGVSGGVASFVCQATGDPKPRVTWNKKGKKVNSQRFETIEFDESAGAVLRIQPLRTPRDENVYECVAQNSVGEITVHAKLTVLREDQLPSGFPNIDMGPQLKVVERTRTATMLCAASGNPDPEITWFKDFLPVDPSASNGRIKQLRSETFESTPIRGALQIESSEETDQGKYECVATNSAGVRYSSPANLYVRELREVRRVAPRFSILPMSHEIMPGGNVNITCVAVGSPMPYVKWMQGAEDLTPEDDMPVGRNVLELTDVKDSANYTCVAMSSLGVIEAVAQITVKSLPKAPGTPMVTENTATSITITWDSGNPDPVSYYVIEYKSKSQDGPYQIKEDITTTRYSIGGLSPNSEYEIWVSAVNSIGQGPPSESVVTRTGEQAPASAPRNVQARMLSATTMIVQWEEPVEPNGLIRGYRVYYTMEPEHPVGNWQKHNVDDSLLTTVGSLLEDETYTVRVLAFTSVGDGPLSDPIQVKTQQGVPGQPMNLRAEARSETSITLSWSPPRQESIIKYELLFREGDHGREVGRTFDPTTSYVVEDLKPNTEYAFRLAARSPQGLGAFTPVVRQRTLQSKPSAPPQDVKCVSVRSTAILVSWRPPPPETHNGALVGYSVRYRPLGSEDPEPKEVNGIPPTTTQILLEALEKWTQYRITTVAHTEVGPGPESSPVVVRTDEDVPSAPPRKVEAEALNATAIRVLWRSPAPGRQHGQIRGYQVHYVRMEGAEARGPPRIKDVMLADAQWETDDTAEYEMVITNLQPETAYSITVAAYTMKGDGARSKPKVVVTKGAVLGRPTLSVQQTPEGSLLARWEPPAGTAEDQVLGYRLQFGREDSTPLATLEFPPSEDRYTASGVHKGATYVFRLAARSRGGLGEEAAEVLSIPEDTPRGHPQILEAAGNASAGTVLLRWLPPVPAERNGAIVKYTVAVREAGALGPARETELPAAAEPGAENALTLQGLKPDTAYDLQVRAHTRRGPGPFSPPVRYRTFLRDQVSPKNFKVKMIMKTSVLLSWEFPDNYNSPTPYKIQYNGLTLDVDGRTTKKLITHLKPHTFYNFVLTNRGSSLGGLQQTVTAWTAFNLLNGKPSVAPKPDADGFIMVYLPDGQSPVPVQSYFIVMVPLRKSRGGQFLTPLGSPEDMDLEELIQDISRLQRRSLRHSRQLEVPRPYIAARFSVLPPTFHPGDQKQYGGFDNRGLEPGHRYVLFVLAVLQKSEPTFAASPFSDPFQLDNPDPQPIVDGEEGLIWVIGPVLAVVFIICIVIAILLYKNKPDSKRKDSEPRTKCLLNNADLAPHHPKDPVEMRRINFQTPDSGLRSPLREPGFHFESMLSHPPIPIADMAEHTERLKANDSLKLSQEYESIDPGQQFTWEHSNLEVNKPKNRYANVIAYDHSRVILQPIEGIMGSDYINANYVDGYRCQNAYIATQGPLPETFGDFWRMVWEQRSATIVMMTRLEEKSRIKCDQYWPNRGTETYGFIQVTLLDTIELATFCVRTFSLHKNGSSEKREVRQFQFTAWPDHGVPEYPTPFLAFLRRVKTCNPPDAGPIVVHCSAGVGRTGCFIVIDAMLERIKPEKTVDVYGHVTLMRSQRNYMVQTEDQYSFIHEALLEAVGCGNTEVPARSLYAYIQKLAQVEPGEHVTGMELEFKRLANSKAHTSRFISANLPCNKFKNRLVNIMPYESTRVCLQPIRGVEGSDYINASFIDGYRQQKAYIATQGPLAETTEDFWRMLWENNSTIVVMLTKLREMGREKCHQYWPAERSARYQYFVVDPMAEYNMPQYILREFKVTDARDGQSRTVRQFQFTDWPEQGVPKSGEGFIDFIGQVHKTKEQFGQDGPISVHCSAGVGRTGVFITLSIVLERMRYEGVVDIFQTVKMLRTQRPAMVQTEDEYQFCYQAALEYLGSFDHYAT
UniProt P28074: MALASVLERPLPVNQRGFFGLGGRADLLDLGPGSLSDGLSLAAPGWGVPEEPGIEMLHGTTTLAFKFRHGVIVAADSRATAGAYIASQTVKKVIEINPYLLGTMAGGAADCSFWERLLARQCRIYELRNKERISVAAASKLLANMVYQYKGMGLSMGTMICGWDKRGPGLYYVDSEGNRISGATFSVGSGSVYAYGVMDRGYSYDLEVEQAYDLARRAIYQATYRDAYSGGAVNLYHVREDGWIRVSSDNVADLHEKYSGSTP

[1] = compound: Cc1nc(Nc2n[nH]c3c2CN(C(=O)N[C@H](CN(C)C)c2ccccc2)C3(C)C)c2sccc2n1
Outline: as §1

dasatinib = compound: Cc1nc(Nc2ncc(C(=O)Nc3c(C)cccc3Cl)s2)cc(N2CCN(CCO)CC2)n1 [dasatinib]
Outline: as §1

[2] = compound: Cc1ncc(-c2ccnc(Nc3ccc(S(C)(=O)=O)cc3)n2)n1C(C)C
Outline: as §1

[3] = compound: Cn1cc(-c2ccc3c(c2)CCN3C(=O)Cc2cccc(C(F)(F)F)c2)c2c(N)ncnc21
Outline: as §1

quisinostat = compound: Cn1cc(CNCC2CCN(c3ncc(C(=O)NO)cn3)CC2)c2ccccc21 [quisinostat]
Outline: as §1

tipifarnib = compound: Cn1cncc1[C@@](N)(c1ccc(Cl)cc1)c1ccc2c(c1)c(-c1cccc(Cl)c1)cc(=O)n2C [tipifarnib]
Outline: as §1

[4] = compound: NC(=O)Nc1cc(-c2cccc(F)c2)sc1C(=O)N[C@H]1CCCNC1
Outline: as §1

[5] = compound: NC(=O)c1cnc(N[C@@H]2CCCC[C@@H]2N)nc1Nc1cccc(-n2nccn2)c1
Outline: as §1

[6] = compound: NC1(c2ccc(-c3nc4ccn5c(=O)[nH]nc5c4cc3-c3ccccc3)cc2)CCC1
Outline: as §1

Measured: log2 fold change

PTRHD1 (UniProt Q6GMV3)
inactive: nilotinib 0.049 | [1] 0.028 | dasatinib 0.03 | [2] 0.176 | [3] 0.026 | quisinostat 0.01 | tipifarnib -0.01 | [4] -0.09 | [5] -0.009 | [6] -0.027

PURB (UniProt Q96QR8)
inactive: nilotinib 0.011 | [1] 0.018 | dasatinib 0.032 | [2] -0.008 | [3] 0.035 | quisinostat 0.13 | tipifarnib -0.033 | [4] -0.028 | [5] 0.007 | [6] -0.028

PSMD9 (UniProt O00233)
inactive: nilotinib -0.018 | [1] -0.048 | dasatinib 0.022 | [2] -0.023 | [3] -0.025 | quisinostat -0.091 | tipifarnib -0.006 | [4] -0.01 | [5] -0.005 | [6] -0.045

PSMA1 isoform 2 (UniProt P25786)
inactive: nilotinib 0.001 | [1] 0.014 | dasatinib 0.035 | [2] 0.028 | [3] -0.029 | quisinostat 0.01 | tipifarnib 0.025 | [4] -0.018 | [5] -0.031 | [6] 0.011

PWP1 (UniProt Q13610)
inactive: nilotinib -0.016 | [1] 0.009 | dasatinib 0.065 | [2] 0.005 | [3] 0.048 | quisinostat 0.068 | tipifarnib 0.017 | [4] -0.005 | [5] -0.003 | [6] 0.036

PRPF8 (UniProt Q6P2Q9)
inactive: nilotinib -0.007 | [1] -0.009 | dasatinib -0.002 | [2] -0.021 | [3] 0.012 | quisinostat -0.004 | tipifarnib 0.003 | [4] 0.026 | [5] -0.006 | [6] -0.002

PSMD6 isoform 4 (UniProt Q15008)
inactive: nilotinib -0.022 | [1] 0.031 | dasatinib 0.004 | [2] 0.003 | [3] 0.011 | quisinostat -0.016 | tipifarnib -0.009 | [4] -0.012 | [5] 0.013 | [6] -0.003

PSMD13 (UniProt Q9UNM6)
inactive: nilotinib 0.001 | [1] 0 | dasatinib -0.036 | [2] -0.005 | [3] 0.022 | quisinostat 0 | tipifarnib -0.001 | [4] -0.012 | [5] 0.001 | [6] 0.024

PSMD1 (UniProt Q99460)
inactive: nilotinib -0.016 | [1] 0.021 | dasatinib 0.027 | [2] 0.001 | [3] -0.008 | quisinostat -0.043 | tipifarnib -0.021 | [4] 0.016 | [5] 0.003 | [6] -0.015

PTK2B (UniProt Q14289)
inactive: nilotinib 0.011 | [1] 0.109 | dasatinib 0.041 | [2] 0.026 | [3] 0.059 | quisinostat -0.122 | tipifarnib -0.067 | [5] 0.072 | [6] -0.04
active: [4] 0.377

PTMA (UniProt P06454)
inactive: nilotinib 0.008 | [1] -0.046 | dasatinib 0.056 | [2] 0.019 | [3] -0.025 | quisinostat 0.047 | tipifarnib 0.045 | [4] 0.017 | [5] 0.032 | [6] -0.006

PSMD2 (UniProt Q13200)
inactive: nilotinib 0.004 | [1] -0.009 | dasatinib -0.014 | [2] -0.013 | [3] -0.001 | quisinostat -0.018 | tipifarnib -0.003 | [4] 0.011 | [5] 0.002 | [6] -0.018

PSMG4 isoform 2 (UniProt Q5JS54)
inactive: nilotinib 0.039 | [1] 0.006 | dasatinib 0.017 | [2] 0.134 | [3] -0.009 | quisinostat -0.073 | tipifarnib -0.018 | [4] -0.056 | [5] -0.054 | [6] 0.007

PTGES2 (UniProt Q9H7Z7)
inactive: nilotinib 0.446 | [1] -0.044 | dasatinib 0.01 | [2] -0.019 | [3] 0.015 | quisinostat -0.046 | tipifarnib -0.057 | [4] -0.012 | [5] -0.056 | [6] -0.078

PSMB1 (UniProt P20618)
inactive: nilotinib 0.005 | [1] -0.004 | dasatinib -0.005 | [2] 0 | [3] -0.017 | quisinostat -0.005 | tipifarnib -0.002 | [4] 0.005 | [5] -0.02 | [6] -0.025

PTPN7 isoform 3 (UniProt P35236)
inactive: nilotinib -0.03 | [1] 0.017 | dasatinib -0.088 | [2] -0.021 | [3] 0.064 | quisinostat 0.008 | tipifarnib 0.054 | [4] -0.006 | [5] -0.015 | [6] -0.043

PSMD14 (UniProt O00487)
inactive: nilotinib -0.025 | [1] 0.022 | dasatinib -0.005 | [2] -0.006 | [3] 0.008 | quisinostat 0.025 | tipifarnib 0.051 | [4] 0.012 | [5] 0.021 | [6] 0.021

PSMD8 (UniProt P48556)
inactive: nilotinib 0.003 | [1] -0.019 | dasatinib -0.061 | [2] -0.005 | [3] 0.017 | quisinostat 0.024 | tipifarnib 0.008 | [4] -0.016 | [5] 0.009 | [6] 0.035

PUM3 (UniProt Q15397)
inactive: nilotinib 0.031 | [1] 0.014 | dasatinib -0.001 | [2] -0.002 | [3] 0.069 | quisinostat 0.03 | tipifarnib -0.047 | [4] 0.056 | [5] -0.001 | [6] -0.063

PSMD10 (UniProt O75832)
inactive: nilotinib 0.018 | [1] -0.033 | dasatinib -0.023 | [2] -0.001 | [3] -0.067 | quisinostat 0.015 | tipifarnib 0.002 | [4] 0.027 | [5] -0.017 | [6] -0.035

Copied from the listing (two entries):
PSMD14 (UniProt O00487)
inactive: nilotinib -0.025 | [1] 0.022 | dasatinib -0.005 | [2] -0.006 | [3] 0.008 | quisinostat 0.025 | tipifarnib 0.051 | [4] 0.012 | [5] 0.021 | [6] 0.021

PSMD8 (UniProt P48556)
inactive: nilotinib 0.003 | [1] -0.019 | dasatinib -0.061 | [2] -0.005 | [3] 0.017 | quisinostat 0.024 | tipifarnib 0.008 | [4] -0.016 | [5] 0.009 | [6] 0.035

Remaining list, next part

PSPH (UniProt P78330)
inactive: nilotinib -0.023 | [1] -0.01 | dasatinib 0.022 | [2] -0.008 | [3] -0.012 | quisinostat -0.01 | tipifarnib -0.013 | [4] -0.01 | [5] 0.01 | [6] 0.008

PSD4 (UniProt Q8NDX1)
inactive: nilotinib 0.027 | [1] 0.013 | dasatinib -0.036 | [2] -0.004 | [3] 0 | quisinostat -0.072 | tipifarnib 0.014 | [4] 0.002 | [5] 0.004 | [6] -0.002

PSRC1 (UniProt Q6PGN9)
inactive: nilotinib -0.103 | [1] -0.127 | dasatinib -0.003 | [2] -0.079 | [3] 0.051 | quisinostat -0.083 | tipifarnib -0.086 | [4] 0.027 | [5] -0.081 | [6] 0.011

PTPA isoform 2 (UniProt Q15257)
inactive: nilotinib 0.011 | [1] -0.009 | dasatinib 0.013 | [2] 0.04 | [3] 0.001 | quisinostat 0.038 | tipifarnib 0.012 | [4] -0.004 | [5] -0.015 | [6] -0.003

PTP4A2 (UniProt Q12974)
inactive: nilotinib 0.126 | [1] -0.007 | dasatinib 0.098 | [2] 0.14 | [3] -0.017 | quisinostat 0.031 | tipifarnib -0.01 | [4] -0.067 | [5] -0.021 | [6] 0.038

PRTFDC1 (UniProt Q9NRG1)
inactive: nilotinib 0.009 | [1] 0.014 | dasatinib 0.004 | [2] -0.018 | [3] -0.007 | quisinostat 0.031 | tipifarnib 0.012 | [4] -0.013 | [5] -0.012 | [6] 0.041

PSMD4 (UniProt P55036)
inactive: nilotinib 0.016 | [1] -0.01 | dasatinib -0.018 | [2] 0.017 | [3] -0.014 | quisinostat -0.011 | tipifarnib 0.003 | [4] -0.022 | [5] -0.002 | [6] 0.001

PSME4 (UniProt Q14997)
inactive: nilotinib 0.001 | [1] -0.015 | dasatinib -0.028 | [2] -0.022 | [3] -0.016 | quisinostat -0.061 | tipifarnib -0.012 | [4] 0.108 | [5] 0.01 | [6] -0.015

PTPRS isoform 3 (UniProt Q13332)
inactive: nilotinib 0.067 | [1] -0.138 | dasatinib 0.007 | [2] 0.099 | [3] -0.042 | quisinostat -0.085 | tipifarnib -0.04 | [4] -0.039 | [5] 0.008 | [6] 0.01

PSMB5 (UniProt P28074)
inactive: nilotinib 0.084 | [1] -0.009 | dasatinib 0.053 | [2] 0 | [3] -0.018 | quisinostat 0.021 | tipifarnib 0.005 | [4] 0.006 | [5] -0.017 | [6] 0.022

— the supplement of paper PMC10849652
